Values from PubChem BioAssay AID1259282 (Sanger Institute, 2017)

Aim: 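Kinases whose loss reduces viability on their own or with anchor drugs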 (primary screen)
Cell system: DIFI human colorectal cancer cell line
Reagents: siRNA pool against human genes
Conditions: anchor drug at a mild dose (BYL719 1 µM, cetuximab 5 µg/ml, trametinib 10 nM) or DMSO vehicle; exposure time not given
Detection: 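Robust z-score and replicate-mean viability versus non-targeting pool without drug, plus a synergy score for each low-dose anchor drug (BYL719, cetuximab, trametinib)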
Reading the numbers: robust z-score, knock-down alone: higher = more viable cells than typical knock-down
Hit rule: 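Essential when the robust z-score of the knock-down without drug falls below -3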
Calls: active = essential (knock-down alone, z below -3); inactive = not essential
This is a random part of 794 deposited reagents. 11 of all reagents (1.4%) were called active. 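Calls flag knock-downs that lower viability without drug; drug synergy appears only in the synergy scores; exposure time not stated.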 A number with no mark means an inactive call. Not all columns of the deposit are shown. Not stated in the record: the amount of reagent, the time to read-out.

How did the screen score SIK3?
robust z-score, knock-down alone: 0.715

How did the screen score RPS6KL1?
robust z-score, knock-down alone: 0.715

For PTEN, what does the deposit list?
robust z-score, knock-down alone: 0.462

Which result is listed for CAMK2N1?
robust z-score, knock-down alone: -2.87

With MLKL, how do the results read?
robust z-score, knock-down alone: 0.715

For IRAK4, what does the deposit list?
robust z-score, knock-down alone: 0.715

What is on record for AURKC?
robust z-score, knock-down alone: 0.111

For MELK, how do the results read?
robust z-score, knock-down alone: 0.715

For RIOK3, what was measured?
robust z-score, knock-down alone: -0.628

Which result is listed for CAMK2G?
robust z-score, knock-down alone: 0.111

Single entries from the list:
AURKC, robust z-score, knock-down alone → 0.111
For “robust z-score, knock-down alone”, RPS6KL1 shows 0.715

More records:
For GNAS, what does the deposit list?
robust z-score, knock-down alone: -0.937

How did the screen score CDK19?
robust z-score, knock-down alone: 0.0852

With GSK3A, how do the results read?
robust z-score, knock-down alone: -0.0781

For DYRK1B, what does the deposit list?
robust z-score, knock-down alone: 0.196

With MAP2K5, what does the deposit list?
robust z-score, knock-down alone: 0.715

With CAMKK1, how do the results read?
robust z-score, knock-down alone: 0.715

How did the screen score MAP2K2?
robust z-score, knock-down alone: 0.715

How did the screen score CNOT1?
robust z-score, knock-down alone: -2.22

For KSR2, how do the results read?
robust z-score, knock-down alone: 0.715

Which result is listed for NME5?
robust z-score, knock-down alone: 0.715

Which result is listed for IP6K3?
robust z-score, knock-down alone: -1.15

Which result is listed for HK1?
robust z-score, knock-down alone: 0.715

What is on record for UCK2?
robust z-score, knock-down alone: 0.715

Which result is listed for ROR2?
robust z-score, knock-down alone: 0.648

For PRPS1, how do the results read?
robust z-score, knock-down alone: -1.04

For PTPN11, what was measured?
robust z-score, knock-down alone: -1.94

With CSNK2A1, what was measured?
robust z-score, knock-down alone: 0.715

How did the screen score MARK4?
robust z-score, knock-down alone: -1.74
